Laboratory results: PubChem BioAssay AID1671195 (Yale University, 2021)
In all, the deposit lists about 22,000 reagents; shown is an unselected part. About 1,510 of them (6.9%) were called active. 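Active includes knockdowns raising or lowering LDL uptake; positive z-scores mean more uptake, negative mean less.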 Reagents against one gene are numbered here.

- Aim: 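Genes whose knockdown alters LDL uptake in liver cancer cells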 (primary screen)
- System: human Huh7 hepatoma cells
- Knock-down reagent: siRNA pool against human genes, 18 nM
- Timing: about 2 to 2.5 days of knockdown, then 8 h LDL uptake
- Treatment: DiI-labelled LDL at 30 µg/ml for 8 h, in lipoprotein-deficient serum medium
- Measurement: 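Per-cell DiI-LDL intensity by automated imaging; well means scaled to the plate median and given as a robust z-score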
- Reading the numbers: robust z-score: higher = more LDL uptake after knockdown
- Hit rule: 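Active when two or more replicates show a robust z-score above 2 or below -2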

gene symbol	reagent	robust z-score, replicate 1	robust z-score, replicate 2	robust z-score, replicate 3	outcome
CDHR2 (cadherin related family member 2)	1	0.688	0.975	1.3	inactive
MYO5C (myosin VC)	1	-0.334	0.0579	0.37	inactive
SDF2 (stromal cell derived factor 2)	1	2.54	1.4	2.69	active
DUSP22 (dual specificity phosphatase 22)	1	1.24	0.463	1.18	inactive
EFEMP2 (EGF-like fibulin extracellular matrix protein 2)	1	0.866	1.55	1.69	inactive
NCMAP (non-compact myelin associated protein)	1	1.34	0.392	0.893	inactive
TOM1 (target of myb1 membrane trafficking protein)	1	-0.287	-0.0952	0.00439	inactive
SKOR2 (SKI family transcriptional corepressor 2)	1	-0.903	-0.67	-0.158	inactive
PSMD8 (proteasome 26S subunit, non-ATPase 8)	1	1.09	1.08	0.298	inactive
C14orf39 (chromosome 14 open reading frame 39)	1	1.13	1.57	1.37	inactive
PTCHD3P1 (patched domain containing 3 pseudogene 1)	1	-0.632	-0.169	-0.354	inactive
LOC442282 (retired record)	1	-1.08	-1.38	-0.749	inactive
KLHL25 (kelch like family member 25)	1	-0.105	-0.471	0.0785	inactive
RXFP1 (relaxin family peptide receptor 1)	1	-1.28	-1.63	-0.96	inactive
CLCN6 (Cl-/H+ antiporter 6)	1	1.19	0.338	1.59	inactive
NGDN (neuroguidin)	1	-0.485	-0.817	-1.22	inactive
CCNK (cyclin K)	1	-0.325	-0.469	-0.927	inactive
LINC00652 (long independently transcribed non-coding RNA 652)	1	2	0.085	1.56	inactive
EXOC4 (exocyst complex component 4)	1	-0.709	-0.0721	-0.957	inactive
NUDT18 (nudix hydrolase 18)	1	2.33	2.44	2.27	active
NETO2 (neuropilin and tolloid like 2)	1	0.837	0.235	-0.109	inactive
TECPR2 (tectonin beta-propeller repeat containing 2)	1	0.00392	0.214	-1.24	inactive
NOAZFP (nucleolar atypical zinc finger)	1	-0.858	0.454	-1.22	inactive
MT4 (metallothionein 4)	1	1.83	1.54	2.04	inactive
PRMT5 (protein arginine methyltransferase 5)	1	-0.212	1.28	-0.834	inactive
TERB1 (telomere repeat binding bouquet formation protein 1)	1	-0.808	-0.951	-0.796	inactive
HEATR6 (HEAT repeat containing 6)	1	0.123	-0.0217	-0.449	inactive
RXFP4 (relaxin family peptide/INSL5 receptor 4)	1	-0.217	0.458	0.48	inactive
TARBP2 (TARBP2 subunit of RISC loading complex)	1	1.47	1.14	1.89	inactive
RGS20 (regulator of G protein signaling 20)	1	-0.427	-0.825	-0.698	inactive
POLR1H (RNA polymerase I subunit H)	1	-1	-1.13	-0.633	inactive
TMEM268 (transmembrane protein 268)	1	1.76	1.29	1.45	inactive
SNU13 (small nuclear ribonucleoprotein 13)	1	-0.884	-0.355	-0.967	inactive
OR8K3	1	1.42	1.24	2.12	inactive
CASKIN1 (CASK interacting protein 1)	1	1.05	0.213	0.638	inactive
OPRPN (opiorphin prepropeptide)	1	-0.531	-0.488	-0.285	inactive
DUX4L8 (double homeobox 4 like 8 (pseudogene))	1	1.44	1.27	0.373	inactive
H6PD (hexose-6-phosphate dehydrogenase/glucose 1-dehydrogenase)	1	-0.336	-0.255	-0.319	inactive
ZNF321P (zinc finger protein 321, pseudogene)	1	0.231	0.372	0.0745	inactive
MSI2 (musashi RNA binding protein 2)	1	-0.79	-0.692	-0.495	inactive
ASPH (aspartate beta-hydroxylase)	1	-1.06	-0.987	-0.63	inactive
C10orf67 (chromosome 10 open reading frame 67)	1	0.203	0.146	0.374	inactive
C10orf67 (chromosome 10 open reading frame 67)	2	-0.121	-0.282	-0.0369	inactive
AP1S3 (adaptor related protein complex 1 subunit sigma 3)	1	-1.33	-1.6	-0.834	inactive
LIN7B (lin-7 cell polarity scaffold B)	1	-1.94	-1.23	-0.862	inactive
KRTAP19-4 (keratin associated protein 19-4)	1	-0.421	-0.295	-0.111	inactive
NAALADL2 (N-acetylated alpha-linked acidic dipeptidase like 2)	1	-0.148	0.433	0.121	inactive
IFNA2 (interferon alpha 2)	1	0.114	-0.164	0.505	inactive
MTMR8 (myotubularin related protein 8)	1	0.573	0.519	0.475	inactive
TMPRSS13 (transmembrane serine protease 13)	1	0.726	1.3	0.764	inactive
LOC100287792	1	-0.352	-0.657	-0.667	inactive
RNASE12 (ribonuclease A family member 12 (inactive))	1	-0.0945	0.0612	0.107	inactive
RPL7P8 (ribosomal protein L7 pseudogene 8)	1	-1.44	-1.26	-1.27	inactive
PRPF40A (pre-mRNA processing factor 40A)	1	-1.26	-1.11	-1.26	inactive
RTL3 (retrotransposon Gag like 3)	1	-0.498	-0.639	-0.544	inactive
TSEN54 (tRNA splicing endonuclease subunit 54)	1	-0.454	-0.538	-0.4	inactive
RALGAPB (Ral GTPase activating protein non-catalytic subunit beta)	1	0.0785	-0.116	1.17	inactive
LOC100505502 (POM121 transmembrane nucleoporin like, pseudogene)	1	-0.0611	0.264	0.0451	inactive
B3GALT1 (beta-1,3-galactosyltransferase 1)	1	0.412	-0.717	0.162	inactive
LIMD2 (LIM domain containing 2)	1	-0.219	0.0588	-0.448	inactive
CSNK1A1 (casein kinase 1 alpha 1)	1	1.48	1.96	2.25	active
MIR600HG (MIR600 host gene)	1	-0.292	0.159	0.254	inactive
UNC45B (unc-45 myosin chaperone B)	1	-0.499	0.0654	-0.307	inactive
FOXO3 (forkhead box O3)	1	0.125	0.271	0.868	inactive
L3MBTL2 (L3MBTL histone methyl-lysine binding protein 2)	1	-0.357	-0.313	-0.575	inactive
USP35 (ubiquitin specific peptidase 35)	1	0.0359	-0.684	-0.0668	inactive
MMRN2 (multimerin 2)	1	-0.627	-0.273	-0.646	inactive
TMEM70 (transmembrane protein 70)	1	0.201	-0.0513	0.00619	inactive
CALR3 (calreticulin 3)	1	-0.204	-0.203	-0.051	inactive
DESI2 (desumoylating isopeptidase 2)	1	-2.25	-0.0199	-0.349	inactive
IGHV4OR15-8 (immunoglobulin heavy variable 4/OR15-8 (non-functional))	1	6.07	5.3	4.72	active
HNRNPC (heterogeneous nuclear ribonucleoprotein C)	1	1.27	0.897	1.63	inactive
HSPA8P8 (heat shock protein family A (Hsp70) member 8 pseudogene 8)	1	3.86	3.92	3.26	active
HSPA8P8 (heat shock protein family A (Hsp70) member 8 pseudogene 8)	2	-0.501	-0.992	-0.97	inactive
CRISPLD2 (cysteine rich secretory protein LCCL domain containing 2)	1	2.29	1.54	1.74	inactive
DLGAP1 (DLG associated protein 1)	1	-0.636	-0.719	-0.355	inactive
DLGAP1 (DLG associated protein 1)	2	-1.93	-0.927	-1.71	inactive
PRRC2A (proline rich coiled-coil 2A)	1	-0.795	-0.738	-0.0751	inactive
P4HA2 (prolyl 4-hydroxylase subunit alpha 2)	1	-0.00728	1.67	0.348	inactive
RUNDC3A (RUN domain containing 3A)	1	-1.32	-0.372	-1.4	inactive
GPRACR (GPR107 adjacent cis regulating lncRNA)	1	-0.235	-0.371	-0.102	inactive
COL22A1 (collagen type XXII alpha 1 chain)	1	0.188	0.48	0.591	inactive
SLC16A8	1	-1.41	-1.26	-1.33	inactive
SCRN2 (secernin 2)	1	1.08	1.79	0.749	inactive
CLDN12 (claudin 12)	1	1.83	-0.427	-0.457	inactive
BTBD16 (BTB domain containing 16)	1	2.53	3.69	2.88	active
DMBT1L1 (deleted in malignant brain tumors 1 like 1 (pseudogene))	1	-0.648	-0.888	-0.756	inactive

Limited to “robust z-score, replicate 1” (10 entries from above):
IGHV4OR15-8 (immunoglobulin heavy variable 4/OR15-8 (non-functional)) = 6.07
HNRNPC (heterogeneous nuclear ribonucleoprotein C) = 1.27
HSPA8P8 (heat shock protein family A (Hsp70) member 8 pseudogene 8) #1 = 3.86
HSPA8P8 (heat shock protein family A (Hsp70) member 8 pseudogene 8) #2 = -0.501
CRISPLD2 (cysteine rich secretory protein LCCL domain containing 2) = 2.29
DLGAP1 (DLG associated protein 1) #1 = -0.636
DLGAP1 (DLG associated protein 1) #2 = -1.93
PRRC2A (proline rich coiled-coil 2A) = -0.795
P4HA2 (prolyl 4-hydroxylase subunit alpha 2) = -0.00728
RUNDC3A (RUN domain containing 3A) = -1.32
